PubChem BioAssay AID743121 | NCATS, 2013
This is a random part of about 26,000 deposited reagents. Over the whole deposit, 167 (0.63%) are marked active. 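Calls are per gene from RSA p-values that are not deposited; an individual active-marked siRNA can sensitise only weakly.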 The numbers tell different reagents against one gene apart.

Aim: 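Partners whose loss is lethal together with topoisomerase I blockade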 (primary screen)
Cells: MDA-MB-231 cells, a human breast cancer line
Reagent: single siRNA against human genes, 20 nM siRNA (0.8 pmol per well)
Time to read-out: 120 h (drug added 48 h after transfection, read 72 h later)
Conditions: camptothecin 20 nM (about EC30) for 72 h; vehicle 0.1% DMSO in parallel plates
Detection: 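CellTiter-Glo ATP signal, scaled to control siRNA as percent viability; sensitisation given as log2 of untreated divided by camptothecin-treated viability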
Direction: log2 vehicle/camptothecin viability: higher = stronger sensitisation to camptothecin; viability with camptothecin and viability without drug: higher = more viable cells
Call rule: 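Each gene scored by redundant siRNA activity (RSA) over its individual siRNA ratios; a gene is called active at p < 0.001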

gene symbol	reagent no.	log2 vehicle/camptothecin viability	viability with camptothecin (% of control)	viability without drug (% of control)	Call
PGRMC1 (progesterone receptor membrane component 1)	1	0.0117	95.5	96.3	inactive
PGRMC1 (progesterone receptor membrane component 1)	2	0.144	29.7	32.8	inactive
PGRMC1 (progesterone receptor membrane component 1)	3	0.276	78.2	94.7	inactive
SLC6A10P	1	-0.0916	47.4	44.5	inactive
SLC6A10P	2	-0.4	77.9	59	inactive
SLC6A10P	3	0.0925	94.6	101	inactive
SLC6A10P	4	0.0983	80.5	86.1	inactive
CIDEB (cell death inducing DFFA like effector b)	1	-0.0665	90.2	86.1	inactive
CIDEB (cell death inducing DFFA like effector b)	2	-0.193	85.7	75	inactive
CIDEB (cell death inducing DFFA like effector b)	3	-1.22	5.15	2.21	inactive
CIDEB (cell death inducing DFFA like effector b)	4	0.214	75.8	88	inactive
IKZF1 (IKAROS family zinc finger 1)	1	-0.0959	114	106	inactive
IKZF1 (IKAROS family zinc finger 1)	2	-0.305	72.4	58.6	inactive
IKZF1 (IKAROS family zinc finger 1)	3	-0.126	98.7	90.5	inactive
IKZF1 (IKAROS family zinc finger 1)	4	-0.0842	105	99.5	inactive
HNRNPU (heterogeneous nuclear ribonucleoprotein U)	1	0.0716	64.5	67.8	inactive
HNRNPU (heterogeneous nuclear ribonucleoprotein U)	2	-0.291	56	45.8	inactive
HNRNPU (heterogeneous nuclear ribonucleoprotein U)	3	-0.00208	47.3	47.3	inactive
HNRNPU (heterogeneous nuclear ribonucleoprotein U)	4	-0.525	82.3	57.2	inactive
CSNK1G2 (casein kinase 1 gamma 2)	1	-0.305	112	90.3	inactive
CSNK1G2 (casein kinase 1 gamma 2)	2	0.218	57.6	67	inactive
CSNK1G2 (casein kinase 1 gamma 2)	3	-0.407	114	86.2	inactive
CSNK1G2 (casein kinase 1 gamma 2)	4	-0.0823	83.1	78.5	inactive
PSMB7 (proteasome 20S subunit beta 7)	1	-0.369	29.3	22.7	inactive
PSMB7 (proteasome 20S subunit beta 7)	2	-0.358	8.87	6.92	inactive
PSMB7 (proteasome 20S subunit beta 7)	3	-0.481	48.2	34.5	inactive
TCF7L1 (transcription factor 7 like 1)	1	-0.642	62.6	40.1	inactive
TCF7L1 (transcription factor 7 like 1)	2	-0.0395	110	107	inactive
TCF7L1 (transcription factor 7 like 1)	3	-0.189	70	61.4	inactive
TCF7L1 (transcription factor 7 like 1)	4	-0.315	66.7	53.6	inactive

5 entries from above, arranged by “viability without drug (% of control)”, lowest first:
gene symbol	reagent no.	log2 vehicle/camptothecin viability	viability with camptothecin (% of control)	viability without drug (% of control)	Call
PSMB7 (proteasome 20S subunit beta 7)	3	-0.481	48.2	34.5	inactive
TCF7L1 (transcription factor 7 like 1)	1	-0.642	62.6	40.1	inactive
TCF7L1 (transcription factor 7 like 1)	4	-0.315	66.7	53.6	inactive
TCF7L1 (transcription factor 7 like 1)	3	-0.189	70	61.4	inactive
TCF7L1 (transcription factor 7 like 1)	2	-0.0395	110	107	inactive
